Measured values taken from patent US7902363B2, “Diimide-based semiconductor materials and methods of preparing and using the same” (Polyera Corporation, priority 2006, dated 2011).

Assays:
[1] = Thin-film transistor characterization of drop-casted and vapor-phase deposited semiconductor films; details: vapor-phase deposited film; dielectric SiO2-OTS; Table 5
Method: Organic semiconductor thin films were fabricated by vapor deposition and solution phase deposition. Evaporated films were prepared in a Denton DV-502 vacuum deposition apparatus (10^−6-10^−7 Torr) on substrates kept at 25-120° C.
Organic semiconductor films were deposited on the following substrates: n^+-Si-(300 nm)SiO2 (Process Specialties Inc.), ITO, ITO-(100-600 nm) CPB dielectric (Polyera Corporation), PET-Al-(100-600 nm) CPB dielectric (Polyera Corporation). These were rinsed with water, methanol, and acetone before CPB or organic semiconductor film deposition. Silane functionalization of the Si/SiO2 surface was carried out by exposing the silicon-oxide wafers to hexamethyldisilazane (HMDS) and octadecyltrichlorosilane (OTS) vapor at room temperature in a closed container under nitrogen.
The growth rate of the films (0.1-0.4 Å/s) was controlled by adjusting the crucible temperature. A calibrated quartz-crystal microbalance was used to control the growth rate and film thickness. Solution-deposited films were fabricated by drop-casting (semiconductor concentration=0.1-2 mg/mL), spin-coating (semiconductor concentration=1-10 mg/mL, spin rate=500-5000 rpm), gravure/flexo printing (semiconductor concentration=10-130 mg/mL, anilox/printing force=10-500 N, printing speed=0.2-1.5 m/s), and inkjet printing (semiconductor concentration=1-10 mg/mL).
For thin-film transistor device fabrication, top-contact electrodes (500 Å) were deposited by evaporating gold (pressure <10^−5 Torr) on top of the gate (Si, ITO, Al)-dielectric (SiO2, CPB)-organic semiconductor samples. TFT device channel dimensions are 50-500 μm (L) by 0.5-4.0 mm (W). The capacitance of the employed insulators are 4-11 nF/cm^2. Electrical measurements were performed using a home-built coaxial probe station employing a Keithley 6430 subfemtoammeter and Keithley 2400 source meter, operated by a local Labview program and GPIB communication. Triaxial and/or coaxial shielding was incorporated into the Signaton probe station to minimize noise.
(§1) To allow comparison with other organic FETs, mobilities (μ) were calculated by standard field effect transistor equations. In traditional metal-insulator-semiconductor FETs (MISFETs), there is typically a linear and saturated regime in the IDS VS VDS curves at different VG (where IDS is the source-drain saturation current; VDS is the potential between the source and drain, and VG is the gate voltage). At large VDS, the current saturates and is given by: (IDS)sat=(WCi/2L)μ(VG−Vt) (1) where L and W are the device channel length and width, respectively, Ci is the capacitance of the oxide insulator (1×10^−8 F/cm^2 for 300 nm SiO2), and Vt is the threshold voltage.
(§2) Mobilities (μ) were calculated in the saturation regime by rearranging equation 1: μsat=(2IDSL)/[WCi(VG−Vt)^2] (2) where Ci, in this case, was 6·10^−8 F. The threshold voltage (Vt) can be estimated as the x intercept of the linear section of the plot of VG versus (IDS)^1/2 (at VSD=−100 V).
Table 4 summarizes electron mobilities and current Ion:Ioff ratios for representative compounds of the present teachings having been drop-casted and/or vapor-phase deposited to form thin film semiconductors.

[2] = Field effect transistor fabricated by spin-coating from CHCl3; details: spin-coated film from CHCl3; dielectric SiO2-OTS
Method: as §1, §2
The representative compound (which may be a mixture of regioisomers) (4-8 mg) was dissolved in CHCl3 (0.5-2 mL) and the solution was spin-coated (1500 rpm) on an OTS-treated Si—SiO2 substrate. The film was then annealed at 80-120° C. in a vacuum-oven for 30 min-5 h. The FET device structure was completed by evaporation of the Au source/drain contacts.
FIG. 16A is a representative transfer plot measured in air for a spin-coated film from chloroform of a compound of the present teachings (PDI8-CN2). FIG. 16B is a representative transfer plot measured in air for a spin-coated film from chloroform of a compound of the present teachings (PDI2EH-CN2).
Table 5 summarizes electron mobilities and current Ion:Ioff ratios spin-coated films of representative PDI—CN2 core compounds of the present teachings.

SMILES | log(Ion:Ioff), Vapor-phase [1] | μ (cm^2/Vs) electron mobility, Vapor-phase [1] | log(Ion:Ioff), Spin-coating [2] | μ (cm^2/Vs) electron mobility, Spin-coating [2]
CCCCC(CC)CN1C(=O)c2ccc3c4c(C#N)cc5c6c(ccc(c7c(C#N)cc(c2c37)C1=O)c64)C(=O)N(CC(CC)CCCC)C5=O (stereo not drawn) [PDI2EH-CN2, N,N′-bis(2-ethylhexyl)-1,7-dicyanoperylene-3,4:9,10-bis(dicarboxiamide)] | 6-8 | 0.1-0.3 cm^2/Vs | 6-7 | 0.2-0.3 cm^2/Vs
CCCCC(C)CN1C(=O)c2ccc3c4c(C#N)cc5c6c(ccc(c7c(C#N)cc(c2c37)C1=O)c64)C(=O)N(CC(C)CCCC)C5=O (stereo not drawn) [PDI2MH-CN2, N,N′-bis(2-methylhexyl)-1,7-dicyanoperylene-3,4:9,10-bis(dicarboxiamide)] | 6-7 | 0.1-0.2 cm^2/Vs | 6-7 | 0.1-0.2 cm^2/Vs
CCCCCCCCN1C(=O)c2ccc3c4c(C#N)cc5c6c(ccc(c7c(C#N)cc(c2c37)C1=O)c64)C(=O)N(CCCCCCCC)C5=O [PDI8-CN2, N,N′-bis(4-n-octyl)-1,7-dicyanoperylene-3,4:9,10-bis(dicarboxiamide), reference compound] | 4-5 | 0.1-0.2 cm^2/Vs | 2-4 | 10^−5-10^−3 cm^2/Vs
